Legend:
[1] = Light resistance of the handwriting (sunlight for one month); design: key: .circleincircle.: Color changing and fading are scarcely observed.; .smallcircle.: Color changing and fading are observed.; ×: Color changing and fading are severe; conditions: Na salt, 3% dye in 5% aqueous ethylene glycol on writing paper
[2] = Water resistance of the handwriting (reflection density after dipping in tap water); conditions: Na salt, 3% dye in 5% aqueous ethylene glycol on writing paper; air-dried one hour, dipped in tap water

Compound	Fastness of the handwriting: light resistance [1]	Fastness of the handwriting: water resistance [2]
Cc1cc(-c2ccc(N=Nc3c(S(=O)(=O)[O-])cc4cc(S(=O)(=O)[O-])c(N=Nc5ccccc5)c(O)c4c3N)c(C)c2)ccc1N=Nc1ccc(N)cc1N.[Na+].[Na+] [Comparative Example 2, C.I. Direct Black 154, reference compound]	.smallcircle.	.smallcircle. (The reflection density is within a range of 50 to 70% of that before test.)
Nc1ccc(N=Nc2ccc(N=Nc3c(S(=O)(=O)[O-])cc4cc(S(=O)(=O)[O-])c(N=Nc5ccc(N=Nc6ccc(N)cc6N)cc5)c(O)c4c3N)cc2)c(N)c1.[Na+].[Na+] [Comparative Example 1, C.I. Direct Black 19, reference compound]	.smallcircle.	.circleincircle. (The reflection density is not less than 70% of that before test.)
CCCCc1ccc(N=Nc2c(S(=O)(=O)O)cc3cc(S(=O)(=O)O)c(N=Nc4ccc(C5(c6ccc(N=Nc7ccc(N(CC)CC)cc7C)cc6)CCCCC5)cc4)c(N)c3c2O)cc1 [Example 7]	.smallcircle.	.circleincircle. (The reflection density is not less than 70% of that before test.)
CCCCc1ccc(N=Nc2c(S(=O)(=O)O)cc3cc(S(=O)(=O)O)c(N=Nc4ccc(C5(c6ccc(N=Nc7ccc(N(C)C)cc7C(=O)O)cc6)CCCCC5)cc4)c(N)c3c2O)cc1 [Example 8]	.smallcircle.	.smallcircle. (The reflection density is within a range of 50 to 70% of that before test.)
CCCCc1ccc(N=Nc2c(S(=O)(=O)O)cc3cc(S(=O)(=O)O)c(N=Nc4ccc(C5(c6ccc(N=Nc7ccc(N(C)C)cc7O)cc6)CCCCC5)cc4)c(N)c3c2O)cc1 [Example 9]	.smallcircle.	.smallcircle. (The reflection density is within a range of 50 to 70% of that before test.)
CCCCc1ccc(N=Nc2c(S(=O)(=O)O)cc3cc(S(=O)(=O)O)c(N=Nc4ccc(C5(c6ccc(N=Nc7ccc(N)cc7O)cc6)CCCCC5)cc4)c(N)c3c2O)cc1 [Example 1]	.smallcircle.	.circleincircle. (The reflection density is not less than 70% of that before test.)
CCCCc1ccc(N=Nc2c(S(=O)(=O)O)cc3cc(S(=O)(=O)O)c(N=Nc4ccc(C5(c6ccc(N=Nc7ccc(O)cc7O)cc6)CCCCC5)cc4)c(N)c3c2O)cc1 [Example 2]	.smallcircle.	.smallcircle. (The reflection density is within a range of 50 to 70% of that before test.)
Cc1ccc(N=Nc2c(S(=O)(=O)O)cc3cc(S(=O)(=O)O)c(N=Nc4ccc(C5(c6ccc(N=Nc7ccc(N)cc7O)cc6)CCCCC5)cc4)c(N)c3c2O)cc1 [Example 6]	.smallcircle.	.circleincircle. (The reflection density is not less than 70% of that before test.)
CCC(C)c1ccc(N=Nc2c(S(=O)(=O)O)cc3cc(S(=O)(=O)O)c(N=Nc4ccc(C5(c6ccc(N=Nc7ccc(N)cc7O)cc6)CCCCC5)cc4)c(N)c3c2O)cc1 (stereo not drawn) [Example 3]	.smallcircle.	.circleincircle. (The reflection density is not less than 70% of that before test.)
CC(C)c1ccc(N=Nc2c(S(=O)(=O)O)cc3cc(S(=O)(=O)O)c(N=Nc4ccc(C5(c6ccc(N=Nc7ccc(N)cc7O)cc6)CCCCC5)cc4)c(N)c3c2O)cc1 [Example 5]	.smallcircle.	.circleincircle. (The reflection density is not less than 70% of that before test.)
C.I. Direct Black 168 [Comparative Example 3, reference compound]	.smallcircle.	.smallcircle. (The reflection density is within a range of 50 to 70% of that before test.)
Nc1ccc(N=Nc2ccc(C3(c4ccc(N=Nc5c(S(=O)(=O)O)cc6cc(S(=O)(=O)O)c(N=Nc7ccccc7)c(O)c6c5N)cc4)CCCCC3)cc2)c(O)c1 [Example 4]	.smallcircle.	.smallcircle. (The reflection density is within a range of 50 to 70% of that before test.)
